Assay results from article PMC3144021.

Key:
[1] = molecular target: T1, steroid and xenobiotic receptor (SXR) (human (endogenous in LS180 and HepG2)) (UniProt O75469); assay: co-IP; non-stimulated LS180 and HepG2 cells (vehicle); cell extracts precipitated with anti-SXR, blot with anti-RXR
T1 sequence: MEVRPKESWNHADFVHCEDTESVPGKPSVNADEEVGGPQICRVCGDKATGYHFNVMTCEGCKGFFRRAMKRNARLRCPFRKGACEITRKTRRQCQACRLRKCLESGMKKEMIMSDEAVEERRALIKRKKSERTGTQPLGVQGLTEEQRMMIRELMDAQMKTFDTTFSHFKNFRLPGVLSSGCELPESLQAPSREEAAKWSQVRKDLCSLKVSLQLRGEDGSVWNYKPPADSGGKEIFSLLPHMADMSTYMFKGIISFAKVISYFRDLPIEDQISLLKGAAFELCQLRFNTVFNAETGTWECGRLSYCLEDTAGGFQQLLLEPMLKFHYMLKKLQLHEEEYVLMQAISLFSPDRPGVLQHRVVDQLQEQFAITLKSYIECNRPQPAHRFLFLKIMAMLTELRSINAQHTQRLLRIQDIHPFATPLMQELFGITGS

[2] = molecular target: T1, steroid and xenobiotic receptor (SXR) (human (endogenous in LS180 and HepG2)); assay: condition: only cells treated with 1 μg/ml CPT-11 for 4 h; co-IP; LS180 and HepG2 cells treated with 1 μg/ml CPT-11 for 4 h; cell extracts precipitated with anti-SXR, blot with anti-RXR; CPT-11 added during immunoprecipitation and washing
[3] = molecular target: T1, steroid and xenobiotic receptor (SXR) (human (endogenous in LS180 and HepG2)); assay: co-IP; LS180 and HepG2 cells treated with 10 μM rifampicin or 10 ng/ml SN-38 for 4 h; cell extracts precipitated with anti-SXR and protein G sepharose overnight at 4°C, blot with anti-RXR; drug added during immunoprecipitation and washing; lysis buffer 20 mM Hepes pH 8, 100 mM NaCl, 0.1% nonidet P-40, 0.25% sodium deoxycholate

Which binding [1] does the source give for “retinoid X receptor (RXR) (human (endogenous in LS180 and HepG2))” here?
The binding was “binds weakly”.

What about the binding [2] of the same substance?
Its binding is “no binding”.

What about the binding [3] of the same substance?
Its binding is “binds”.

These are yes or no findings as the source states them, for the method shown. Binding seen in cells or lysates may run through a third protein. For part of these data: Binding calls can cover weak binding; strength is not graded here.
